{"source": "PubChem BioAssay AID624297", "about": "(National Center for Advancing Translational Sciences (NCATS), 2012)", "note": "Hit rate of the full screen: of about 340,000 compounds, about 6,200 (1.8%) were called active. Inconclusive results, whose numbers are uncertain, are shown with a selection of clear calls. Calls follow the shape of the dose curve; as a rule, active = well fitted activation curve with a large enough effect; inconclusive = small, poorly fitted or top-dose-only effect; inactive = no such curve, though single readings can be large or run the other way. Where the call is inconclusive, the potency comes from a doubtful curve fit. Potency is read from the fitted curve at half-maximal effect."}
{"assay": "A quantitative high throughput screen for small molecules that induce DNA re-replication in SW480 colon adenocarcinoma cells; also: nearly all actives have a fitted effect of over 55% in size; as to re-replication activation: % of control where 0% means no effect.", "details": "Hoechst DNA content imaging, 48 h; re-replication activation: at 46.1 µM (top of the series) unless noted", "procedure,_shortened": "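Cells (250 per well) received 23 nL compound or DMSO by pin tool and were kept 48 hr at 37 C, 5% CO2. Nuclei were then stained with Hoechst for 40 min and scanned for DNA content.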"}
{"smiles": "CSc1nsc(N/N=C/c2ccc3c(c2)OCO3)c1C#N", "Potency": "inconclusive: 29.1 µM [activator, single point]"}
{"smiles": "Cc1cccc(N2CCN(C(=O)c3nn(C)c4c3CS(=O)(=O)c3ccccc3-4)CC2)c1C", "Potency": "inconclusive: 29.1 µM [activator, partial curve, poor fit]"}
{"smiles": "COc1ccccc1CNC(=O)CCc1cn(C)c2ccccc12", "re-replication activation": "inactive: -11%"}
{"smiles": "COc1cc2c(cc1OC)C(C)N(C(=O)c1cc(Cl)nc(Cl)c1)CC2", "note": "(stereo not drawn)", "Potency": "active: 8.2 µM"}
{"smiles": "Cc1cc(C(=O)NNC(=S)Nc2ccccc2C)cs1", "Potency": "inconclusive: 1.3 µM [activator, full curve, poor fit]"}
{"smiles": "O=C(Cc1csc(Nc2nc(=S)[nH]c3ccccc23)n1)NCCCN1CCN(c2cccc(Cl)c2)CC1", "Potency": "inconclusive: 23.1 µM [activator, single point]"}
{"smiles": "CCn1nnnc1SCC(=O)N(C)C1CCS(=O)(=O)C1", "note": "(stereo not drawn)", "re-replication activation": "inactive: -3.47%"}
{"smiles": "CCOC(=O)C1C(=O)C=C(c2ccccc2)CC1c1ccccc1", "note": "(stereo not drawn)", "re-replication activation": "inactive: -6.26%"}
{"smiles": "COc1ccc(OC)c(S(=O)(=O)N2CCCCC2C(=O)N2CCN(c3ccccn3)CC2)c1", "note": "(stereo not drawn)", "Potency": "inconclusive: 29.1 µM [activator, single point]"}
{"smiles": "CC(=O)N1CCN(C(=O)c2ccc(-c3ccccc3Cl)o2)CC1", "re-replication activation": "inactive: -5.49%"}
{"smiles": "COc1ccc(C(=O)Nc2ccc(S(=O)(=O)Nc3cc(C)nc(C)n3)cc2)cc1", "Potency": "inconclusive: 0.82 µM [activator, full curve, poor fit]"}
{"smiles": "c1coc(-c2nc(-c3ccco3)c(-c3ccco3)nc2-c2ccco2)c1", "Potency": "inconclusive: 18.4 µM [activator, partial curve]"}
{"smiles": "COc1c(-c2ccccc2)oc2c(ccc3occc32)c1=O", "re-replication activation": "inactive: 6.97%"}
{"smiles": "COc1ccc(OC)c(NC(=O)C(C)OC(=O)c2cc3ccccc3[nH]2)c1", "note": "(stereo not drawn)", "re-replication activation": "inactive: -0.319%"}
{"smiles": "Cc1ccc(C(=O)Cn2c(C(=O)OCCO)cc3ccccc32)cc1", "Potency": "inconclusive: 20.6 µM [activator, single point]"}
{"smiles": "N#Cc1ccccc1Cn1c(=O)n(CCCC(=O)NCc2ccc3c(c2)OCO3)c(=O)c2ccccc21", "re-replication activation": "inconclusive: 236% [activator]"}
{"smiles": "O=C(O)CCN1C(=O)/C(=C\\c2cccc(OCC(=O)Nc3ccc(Cl)cc3)c2)SC1=S", "Potency": "inconclusive: 29.1 µM [activator, partial curve, poor fit]"}
{"smiles": "CCOC(=O)N1CCN(c2nc(-c3ccccc3)c3cc(C)ccc3n2)CC1", "Potency": "inconclusive: 8.2 µM [activator, partial curve]"}
{"smiles": "O=C(COC(=O)C1CCN(c2ccc(C(F)(F)F)cn2)CC1)Nc1cccc(F)c1", "Potency": "inconclusive: 3.26 µM [activator, partial curve, poor fit]"}
{"smiles": "CCOC(=O)N1CCC(NC(=O)c2ccc3c(c2)N=C(CC)c2cc(C)ccc2S3)CC1", "Potency": "inconclusive: 23.1 µM [activator, partial curve, poor fit]"}
{"smiles": "O=C(O)c1ccc(/C=N/NC(=O)C(O)(c2ccccc2)c2ccccc2)cc1", "Potency": "inconclusive: 29.1 µM [activator, single point]"}
{"smiles": "CC(C)(C)C(=O)N1CCc2cc(-c3csc(N)n3)ccc21", "re-replication activation": "inactive: 13%"}
{"smiles": "Cc1cccc(NC(=O)CNC(=O)Cn2cc(C(F)(F)F)cc(Cl)c2=O)c1C", "re-replication activation": "inactive: -35.4%"}
{"smiles": "CCCCN(C(=O)c1cc(CC)c(C)s1)c1c(N)n(CCC)c(=O)[nH]c1=O", "Potency": "inconclusive: 0.461 µM [activator, partial curve, poor fit]"}
{"smiles": "O=C(O)CCNc1ccc2c(c1)OCCO2", "Potency": "inconclusive: 23.1 µM [activator, single point]"}
{"smiles": "COc1ccc(/C=C(\\NC(=O)c2ccco2)C(=O)NCCc2nc3ccccc3[nH]2)cc1", "Potency": "inconclusive: 2.59 µM [activator, single point]"}
{"smiles": "CN(C)c1ccc(C(=O)OCC(=O)NC2CCCCCC2)cc1", "re-replication activation": "inactive: -11.9%"}
{"smiles": "Cc1ccc(NC(=O)C2CCCN2C(=O)OCc2ccccc2)c(O)c1", "note": "(stereo not drawn)", "Potency": "inconclusive: 32.6 µM [activator, single point]"}
{"smiles": "CCCCN(C(=O)NC(=O)Nc1nc2ccc(OC)cc2s1)S(C)(=O)=O", "Potency": "inconclusive: 10.3 µM [activator, partial curve, poor fit]"}
{"smiles": "CCc1sc(C(=O)Nc2nc(C)cs2)cc1C", "re-replication activation": "inactive: -1.08%"}
{"smiles": "COc1ccc(C(=O)NNC(=O)c2ccc(F)c(S(=O)(=O)N3CCOCC3)c2)cc1", "re-replication activation": "inactive: -1.21%"}
{"smiles": "CC(=O)N1CC(C)Sc2ccc(S(=O)(=O)NCc3ccccc3Cl)cc21", "note": "(stereo not drawn)", "Potency": "inconclusive: 2.59 µM [activator, single point]"}
{"smiles": "Cc1ccc(C)c(N2CCN(C(=O)c3cc4c(C)nc5ccccc5c4o3)CC2)c1", "re-replication activation": "inactive: -8.64%"}
{"smiles": "O=C(CSc1ccc(-c2cccnc2)nn1)N1CCCCC1", "Potency": "inconclusive: 29.1 µM [activator, single point]"}
{"smiles": "O=C(NCc1cccc(Cl)c1)N1CCN(S(=O)(=O)c2ccccc2F)CC1", "Potency": "inconclusive: 4.61 µM [activator, full curve, poor fit]"}
{"smiles": "Cc1ccc(C(=O)Nc2cccnc2Cl)cc1Cl", "re-replication activation": "inactive: -7.81% [at 9.22 µM]"}
{"smiles": "CCOc1ccccc1NC(=O)C(NCC1(N2CCCCC2)CCCCC1)c1ccccc1", "note": "(stereo not drawn)", "Potency": "inconclusive: 0.366 µM [activator, full curve]"}
{"smiles": "Cc1nc2c(C)cccc2cc1C(=O)N/N=C/c1cccc([N+](=O)[O-])c1", "Potency": "inconclusive: 32.6 µM [activator, partial curve, poor fit]"}
{"smiles": "COc1ccc(/C=N/NC(=O)c2ccn[nH]2)cc1Cn1nc(C)c([N+](=O)[O-])c1C", "Potency": "inconclusive: 16.4 µM [activator, partial curve, poor fit]"}
{"smiles": "CS(=O)(=O)c1ccc(-c2nnc(NC(=O)c3ccco3)o2)cc1", "re-replication activation": "inactive: -310%"}
{"smiles": "COc1ccc(NC(=O)c2cc3ccccc3o2)cc1S(=O)(=O)N1CCCCC1", "Potency": "inconclusive: 29.1 µM [activator, single point]"}
{"smiles": "Cc1ccc(C(CC(=O)O)NC(=O)CCNC(=O)c2ccco2)cc1", "note": "(stereo not drawn)", "Potency": "inconclusive: 0.116 µM [activator, full curve, poor fit]"}
{"smiles": "CCC[C@@H](CN1CCC[C@H]1CN1C(N)=NC[C@@H]1Cc1ccccc1)N1C[C@@H]([C@H](C)CC)N(CCCC2CCCC2)C1=N", "Potency": "inconclusive: 2.06 µM [activator, full curve, poor fit]"}
